# Reference: the supplement of paper PMC11546906
# Where a name gives a salt, the structure may show the parent alone. Some of the results follow. Repeats in this data set agree poorly, so a single value says little.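 Screen of FDA-approved drugs, each combined with colistin at one-eighth of its MIC, against a multidrug-resistant mcr-1-positive clinical E. coli isolate; growth read as OD600 after 24 h. Bacteria without drug were the growth control and plain broth the blank. A combination counted as active when OD600 fell below 0.2.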
# Test system: Escherichia coli 42 (mcr-1-positive clinical isolate)
# Test: OD600 after 24 h growth with compound plus colistin (absorbance units (OD600)); higher = more bacterial growth (less inhibition)
# Settings: first compound 25 µM; colistin concentration 0.5 ug/mL; incubation time 24 h; 37 °C
row,SMILES,OD600
1,CCN(CC)C(=O)C1(c2ccccc2)CC1CN (centres undefined) [Milnacipran hydrochloride] + CCC(C)CCCC(=O)N[C@@H](CCN)C(=O)N[C@H](C(=O)N[C@@H](CCN)C(=O)N[C@H]1CCNC(=O)[C@H]([C@@H](C)O)NC(=O)[C@H](CCN)NC(=O)[C@H](CCN)NC(=O)[C@H](CC(C)C)NC(=O)[C@@H](CC(C)C)NC(=O)[C@H](CCN)NC1=O)[C@@H](C)O [colistin],inactive: 1.06
2,CCN(CC)C(=O)N1CCN(C)CC1 [Diethylcarbamazine citrate] + CCC(C)CCCC(=O)N[C@@H](CCN)C(=O)N[C@H](C(=O)N[C@@H](CCN)C(=O)N[C@H]1CCNC(=O)[C@H]([C@@H](C)O)NC(=O)[C@H](CCN)NC(=O)[C@H](CCN)NC(=O)[C@H](CC(C)C)NC(=O)[C@@H](CC(C)C)NC(=O)[C@H](CCN)NC1=O)[C@@H](C)O [colistin],inactive: 0.734
3,COc1cc(C)c(/C=C/C(C)=C/C=C/C(C)=C/C(=O)O)c(C)c1C [Acitretin] + CCC(C)CCCC(=O)N[C@@H](CCN)C(=O)N[C@H](C(=O)N[C@@H](CCN)C(=O)N[C@H]1CCNC(=O)[C@H]([C@@H](C)O)NC(=O)[C@H](CCN)NC(=O)[C@H](CCN)NC(=O)[C@H](CC(C)C)NC(=O)[C@@H](CC(C)C)NC(=O)[C@H](CCN)NC1=O)[C@@H](C)O [colistin],inactive: 0.921
4,CC(C[N+](C)(C)C)OC(N)=O (centres undefined) [Bethanechol chloride] + CCC(C)CCCC(=O)N[C@@H](CCN)C(=O)N[C@H](C(=O)N[C@@H](CCN)C(=O)N[C@H]1CCNC(=O)[C@H]([C@@H](C)O)NC(=O)[C@H](CCN)NC(=O)[C@H](CCN)NC(=O)[C@H](CC(C)C)NC(=O)[C@@H](CC(C)C)NC(=O)[C@H](CCN)NC1=O)[C@@H](C)O [colistin],inactive: 0.852
